Laboratory results as given in PMC6651783.
Results are given in words; binding and its absence hold for the method and conditions named. Some entries that bind do so weakly or less than the wild type. Blank lines part the entries; values can stand above or below the binder they belong to.

Columns and labels:
[1] = target: T1, NPR3 (Arabidopsis NPR1 paralog) (Arabidopsis) (UniProt Q8L746); assay: two-hybrid; mated diploid yeast diluted to OD600 1.0, 0.1 and 0.01, plated on quadruple dropout (-Leu-Trp-His-Ade) agar with or without 200 uM NaSA or SA analogs, 30 C for 72 h; read-out is colony growth
T1 sequence: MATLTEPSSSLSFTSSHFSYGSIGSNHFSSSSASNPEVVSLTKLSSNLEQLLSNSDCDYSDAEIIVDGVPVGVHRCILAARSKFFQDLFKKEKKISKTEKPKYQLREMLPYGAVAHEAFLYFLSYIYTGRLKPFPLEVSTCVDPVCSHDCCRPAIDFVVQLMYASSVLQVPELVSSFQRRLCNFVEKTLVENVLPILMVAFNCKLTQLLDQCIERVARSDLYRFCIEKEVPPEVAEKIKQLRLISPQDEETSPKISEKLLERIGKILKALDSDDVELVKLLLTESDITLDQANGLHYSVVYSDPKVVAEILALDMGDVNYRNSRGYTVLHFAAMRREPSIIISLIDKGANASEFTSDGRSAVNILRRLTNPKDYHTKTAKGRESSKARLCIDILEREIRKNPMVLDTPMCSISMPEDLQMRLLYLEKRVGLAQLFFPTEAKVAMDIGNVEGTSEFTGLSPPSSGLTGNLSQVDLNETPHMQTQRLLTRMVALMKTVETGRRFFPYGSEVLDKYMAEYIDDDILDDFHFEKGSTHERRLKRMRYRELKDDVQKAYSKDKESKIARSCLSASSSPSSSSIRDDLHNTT

[2] = target: NPR4 (Arabidopsis NPR1 paralog) (Arabidopsis) (UniProt Q5ICL9); assay: as above

- binding [1]: binds
B1: NPR3 (Arabidopsis NPR1 paralog) (protein, UniProt Q8L746 1-586)
chain: T1 sequence

- binding [2]: binds
- binding [1]: binds
B2: NPR4 (Arabidopsis NPR1 paralog) (protein, UniProt Q5ICL9 1-574)
chain: MAATAIEPSSSISFTSSHLSNPSPVVTTYHSAANLEELSSNLEQLLTNPDCDYTDAEIIIEEEANPVSVHRCVLAARSKFFLDLFKKDKDSSEKKPKYQMKDLLPYGNVGREAFLHFLSYIYTGRLKPFPIEVSTCVDSVCAHDSCKPAIDFAVELMYASFVFQIPDLVSSFQRKLRNYVEKSLVENVLPILLVAFHCDLTQLLDQCIERVARSDLDRFCIEKELPLEVLEKIKQLRVKSVNIPEVEDKSIERTGKVLKALDSDDVELVKLLLTESDITLDQANGLHYAVAYSDPKVVTQVLDLDMADVNFRNSRGYTVLHIAAMRREPTIIIPLIQKGANASDFTFDGRSAVNICRRLTRPKDYHTKTSRKEPSKYRLCIDILEREIRRNPLVSGDTPTCSHSMPEDLQMRLLYLEKRVGLAQLFFPAEANVAMDVANVEGTSECTGLLTPPPSNDTTENLGKVDLNETPYVQTKRMLTRMKALMKTVETGRRYFPSCYEVLDKYMDQYMDEEIPDMSYPEKGTVKERRQKRMRYNELKNDVKKAYSKDKVARSCLSSSSPASSLREALENPT
